Source: article PMC7139787

Biological target: T1, RipX1 (Ralstonia solanacearum harpin-like protein RipX), bait in pGBKT7 (Ralstonia solanacearum) (UniProt Q9RBS0)
T1 sequence: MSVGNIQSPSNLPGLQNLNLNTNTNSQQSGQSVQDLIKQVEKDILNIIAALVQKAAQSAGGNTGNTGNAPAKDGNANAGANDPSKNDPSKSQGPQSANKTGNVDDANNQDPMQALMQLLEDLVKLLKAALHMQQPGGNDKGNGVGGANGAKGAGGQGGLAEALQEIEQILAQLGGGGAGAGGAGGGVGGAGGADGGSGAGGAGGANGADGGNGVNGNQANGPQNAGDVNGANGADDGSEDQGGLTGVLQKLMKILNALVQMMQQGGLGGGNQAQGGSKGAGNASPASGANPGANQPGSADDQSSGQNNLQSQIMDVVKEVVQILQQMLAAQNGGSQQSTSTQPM
Assay: two-hybrid

mitochondrial ATP synthase F1 subunit alpha (ATPA) of N. benthamiana, prey in pGADT7 (Nicotiana benthamiana)
binding: binds

These are yes or no findings as the source states them, for the method shown. Binding can be weak; no strength is given.
